Out of some 52,000 sequences screened, about 210 (0.4%) were called active.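 The calls were made as follows: active = gene whose silencing raises cell survival under the drug, median off-target-corrected z-score across its silencing RNAs 2 or more; inactive = the rest.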 This is one part of the list.
assay: Resistance to Poly (ADP-Ribose) Polymerase inhibitor: Gene Identification via Genome-wide siRNA Screen; details: mouse BRCA2 R2336H ES cells, olaparib, CellTiter-Glo viability; active compounds read high
Outline: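 Mouse BRCA2 R2336H ES cells were reverse-transfected with siRNA (20 nM final), treated at 48 h with 500 nM olaparib, and read by CellTiter-Glo after 72 h. Scores: MAD-based z per siRNA, median per gene, seed off-target correction.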

Sequence | z-score
GCAGGAGUCAAACGAGUACTT against Vim | inactive: -1.05
GGAAUAUGCACUUAAGCAATT against 2700084L06Rik | inactive: -0.421
GCUCUCUCUCUUCUUACUGTT against Olfr1160 | inactive: -0.186
GCUCCUUUUUCCUCUCUUUTT against Defb23 | inactive: -0.99
GGAAAGAGGAAUCAAGAAATT against Slc23a2 | inactive: -0.0929
CCACAGAAUAAGACAAUAUTT against Fbxo34 | inactive: -1.38
GGCAGUGGCAAAUCAAGAUTT against Pop1 | inactive: 1.6
GGUCAAGAGGGAAAACUUUTT against Ctps | inactive: -1.59
GGAAAUGCAGAACCGAACATT against Echs1 | inactive: -0.192
GCGGCGCAUGACUGAAAGATT against Chd8 | inactive: -1.43
CCCUUUGAUAUGAAGUCAATT against Copg2 | inactive: 2.14
GGCCUGUGAGACCAAUUGGTT against 9330199A09Rik | inactive: 0.0898
GCAUAAGGACCCUUUGUCATT against Rasl10b | inactive: -1.19
CGGAUCCUGGUCACCAUUUTT against Olfr95 | inactive: -0.0093
GGUCCUGUUAGUGUUUACCTT against Pde8a | inactive: 1.59
GGGCUAAGGACAGAAUUACTT against Tusc2 | inactive: 0.895
GCUCAGCUGUGGGUAAUACTT against A430091O22Rik | inactive: -0.71
GGCAUGGAUUGGUGAGAUUTT against 9330175E14Rik | inactive: -1.05
GGUUUUUUAACAGAGAUCCTT against Hipk1 | inactive: 0.916
GGAGGAUUCCCUCUAUAUUTT against Slc33a1 | inactive: 0.624
GCUAAGUGGAGUUUAUGCUTT against D8Ertd319e | inactive: 1.85
GGACGAUUGCCAUAUGAACTT against Narg2 | inactive: 0.841
GGAAAGUCAAUCAGAAAAUTT against Dars | inactive: -0.458
GCUGUCUGAUUCUGAGGUGTT against Slc6a1 | inactive: -0.947
CGCAUUUGAAGUGUUCGACTT against 1700073K01Rik | inactive: 1.07
GCCCUUUGGCAAUGUGAGATT against Opn1mw | inactive: 1.56

Sequence | z-score
GGAAGUAUUUCACAUGUGATT against Dctn1 | inactive: -1.78
GGGUUAUGGCUGGAAUCUGTT against Slc12a9 | inactive: 2.36
GGACUGCACCUUUUGGCAUTT against Tlr11 | inactive: -1.12
GCAAAAUUCCUAGCCGUUUTT against C330012H03Rik | inactive: -0.826
GGUAGGUUAAAGAGACUUUTT against Msx1 | inactive: -1.72
GCACAAGAAAUCGAAUAUGTT against Acr | inactive: 0.146
CCUAAGACGUGGACUGGUGTT against D10628 | inactive: 2.44
CCUACACUGAGAUUUCAACTT against 4833432M17Rik | inactive: -0.309
GGCUCAGUCAGUGACUGUATT against Erf | inactive: -0.856
GGGAUGAAUUGGUUGUUUATT against Large | inactive: 0.687
GUUUUCUGAGGUGAACAGATT against AI505652 | inactive: 0.92
GGUACCCAGCGAUCAUGCATT against Olfr1370 | inactive: -0.151
GGUAUGAGCAACCUAAGUGTT against Smoc2 | inactive: -1.56
GGUGUCCUAUGUGAAGGAGTT against Trmt1 | inactive: -1.21
GGUCUCAGUUGGAAUUAUUTT against 9030416H16Rik | inactive: -0.957
GCUAGACUUCUUUGUGCGATT against Abhd8 | inactive: -0.388
GCUAUUCGUUUCUUAUAACTT against Slc19a3 | inactive: 0.858
GGGCAAUGGAAGAAUUCCUTT against BC030500 | inactive: 0.0082
GGAAGAGGUUCAGAACAGATT against 4930540L03Rik | inactive: 0.892
GGCUUGCCUUUUUUGCUAUTT against Olfr1404 | inactive: -0.657
GGAUGCUUACGGGAGACGATT against Tmem9 | inactive: 0.542
GCUAGCGAUAACAAGAUUGTT against A330009G12Rik | inactive: -0.0432
CCAAUCAGGUUGAAUAAGATT against BC006909 | inactive: 1.46
CCCUUAUCACAUGUGUGGATT against 5730436H21Rik | inactive: -0.966
GGAAACUUCUUCCCGGUUGTT against Mlze | inactive: -2.89
GAGUGCUAAGUAGGAAAGGTT against Olfr33 | inactive: -0.112

Sequence | z-score
GGUUAUUGAUGUGACGAUGTT against Rem2 | inactive: 0.147
GGGAUAUUGAUAGUUUUUCTT against 2410007P03Rik | inactive: -0.672
GGCUAGAAAUCAUCAAUGATT against Ntrk2 | inactive: 0.638
GAAGUCCUGGGACUUUAUGTT against Nudt14 | inactive: -0.375
GGAUGGUGAGGAGAGUUAATT against Gm466 | inactive: 1.99
GGUGAAGGUACGAGUAAGATT against Prkra | inactive: -1.54
GGAGACAGAAUGCACAUUUTT against Tff3 | inactive: -1.75
CGCAGGACAUUUGGUUUUGTT against Ssxb2 | inactive: 1.82
GGAAAAGAAAGGUCCUGAGTT against Klc3 | inactive: -0.119
CGAAGAGGAUAGGCUACGCTT against Adrbk2 | inactive: 1.47
CGAACCUCCAGUUAUUAGUTT against Chfr | inactive: -0.871
CGACAACGAUAAGUUUGAATT against Fgg | inactive: 0.274
GCCACUUCCGCAUAAUUGGTT against Setbp1 | inactive: 0.31
GGGCUUCGAUGGAACUCCUTT against Col4a3 | inactive: -0.349
CCCAUCCUGUAUCCACUAATT against Mlf2 | inactive: 0.951
GGCUUUCUGUUAAAAAGCUTT against 1110059F07Rik | inactive: 0.837
GGCAUGUAAUGAAUUCACATT against Pbx3 | inactive: 1.13
GGAACUUAAGAACUUUCUATT against Calb1 | inactive: 1.37
GGCCACUCAAUAUCAACGATT against Apaf1 | inactive: 0.427
GCAUAGGAGAGACCAACAUTT against Zcchc10 | inactive: -1.75
CCGUAUCACGCACUUAGUUTT against 2310075M15Rik | inactive: -0.835
GCGUAAACAUUGUAACAACTT against Pkib | inactive: -0.2
AGUGAAGAAAUGUUUGACATT against Raet1b | inactive: 1.94
GCAGGGCAAUAUCUUCUACTT against Chst3 | inactive: -0.102
GGAAAUAUUGAUGCUGCUGTT against 4922503N01Rik | inactive: -1.46
GAGUUCGAUGUUCAGGAGCTT against Ndrg1 | inactive: 0.452

Sequence | z-score
CCUCAGCGGAGAAGAUGUATT against Adora1 | inactive: -0.334
GCUAAUACUGAAAUCGAUGTT against 4931417A20 | inactive: 0.164
GGAUUUCAUUAUCCUGUUUTT against 4932417D18Rik | inactive: -1.6
GCACCAAUAGAGUUAGAAATT against Oprk1 | inactive: -1.06
GGCUUUCCAAAGAUUAGUCTT against Arl1 | inactive: -1.25
GGCAACUUGAUUGUAAACUTT against Zic2 | inactive: 0.377
CGCGCAGAAUCAGAGCGAUTT against 6030457N17Rik | inactive: -0.489
GCUCCAAAAGUCAAGACCGTT against Safb2 | inactive: -0.442
CCAACAUGAUUGAGUCUUCTT against Lrp5 | inactive: -0.812
CCCUCAACCUCCAACCACATT against Ceacam1 | inactive: -2.07
GGAAUACCUUUCAUCGAUUTT against Ampd2 | inactive: 0.37
GGAAAUUCAGCCACAACUCTT against Htr4 | inactive: 0.217
CCAAACUUAAACAUGUUGUTT against Ddx21 | inactive: -0.441
GGACAAGUACAAGAAGAAGTT against Rfxap | inactive: 0.407
CGACUUUCUAAGUCUCAACTT against Hyal1 | inactive: 0.679
GGCUUUUCCAUCGAUGAGUTT against F2rl1 | inactive: -0.879
GCACAUUUACAGCCUAAUGTT against 2700078E11Rik | inactive: -0.649
GGAAUAAAUAACAUUUCCCTT against Parvg | inactive: 1.22
GGAUGUCCUGAAAGAAAAATT against H2-M9 | inactive: -0.657
CGACAAGGGUUCCCUAGAATT against Nkd2 | inactive: -0.513
GGUUUAUUUCCAAAGUUGATT against 4732493F09Rik | inactive: 0.237
CCGUGAUUUAUUUGGAGUGTT against Tpt1 | inactive: 0.941
GGAAAGAAUUGAGAUCUAATT against Rhoq | inactive: 0.244
GCACACCAACAAUGCUUUCTT against 1810054O13Rik | inactive: 0.231
GGAUACAAAAAAUGAAGUCTT against Cbr3 | inactive: -0.122
CGAUAAAUAACUCAGCAUGTT against Epha6 | inactive: -0.416

Looked up one by one from the list above (3):
Sequence | z-score
GGCAACUUGAUUGUAAACUTT against Zic2 | inactive: 0.377
CGCGCAGAAUCAGAGCGAUTT against 6030457N17Rik | inactive: -0.489
GCACAUUUACAGCCUAAUGTT against 2700078E11Rik | inactive: -0.649
